Test results as given in publication PMC9991063.

Tests used:
[1] = molecular target: T1, VPY-GFP (VAPYRIN) (M. truncatula) (UniProt D3J162); assay: co-IP; anti-GFP nanobody trap (GFP-Trap) on lysates of protoplasts from N. benthamiana leaves co-expressing pairs of proteins (with p19); extraction buffer 50 mM Tris-HCl pH 7.5, 150 mM NaCl, 10% glycerol, 2 mM EDTA, 5 mM DTT, 1% IGEPAL CA-630; blots with anti-GFP and anti-mCherry
T1 sequence: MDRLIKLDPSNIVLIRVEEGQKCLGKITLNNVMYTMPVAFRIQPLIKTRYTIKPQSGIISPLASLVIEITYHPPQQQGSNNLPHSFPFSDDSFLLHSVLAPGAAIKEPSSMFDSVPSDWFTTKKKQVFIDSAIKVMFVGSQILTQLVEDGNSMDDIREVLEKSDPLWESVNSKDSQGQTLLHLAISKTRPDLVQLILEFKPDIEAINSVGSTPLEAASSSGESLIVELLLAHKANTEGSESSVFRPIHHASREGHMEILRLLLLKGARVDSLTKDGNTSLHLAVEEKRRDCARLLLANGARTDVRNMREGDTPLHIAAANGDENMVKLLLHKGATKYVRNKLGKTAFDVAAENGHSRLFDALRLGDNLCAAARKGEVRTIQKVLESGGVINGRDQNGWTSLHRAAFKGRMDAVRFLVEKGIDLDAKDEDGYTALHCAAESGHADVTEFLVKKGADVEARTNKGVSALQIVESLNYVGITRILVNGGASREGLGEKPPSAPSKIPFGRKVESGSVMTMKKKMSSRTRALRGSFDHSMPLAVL

[2] = molecular target: mCherry-RPG (RHIZOBIUM-DIRECTED POLAR GROWTH) (M. truncatula); assay: co-IP; anti-RFP nanobody trap (RFP-Trap Magnetic agarose, 4 °C, 90 min) on lysates of protoplasts from N. benthamiana leaves co-expressing pairs of proteins (with p19); extraction buffer 50 mM Tris-HCl pH 7.5, 150 mM NaCl, 10% glycerol, 2 mM EDTA, 5 mM DTT, 1% IGEPAL CA-630; blots with anti-GFP and anti-mCherry

binding [1]: binds
Molecule: mCherry-EXO70H4 (M. truncatula)

binding [2]: binds
B1: VPY-GFP (VAPYRIN) (protein, UniProt D3J162 1-541)
chain: T1 sequence

These are yes or no findings as the source states them, for the method shown. In cells and extracts the contact can be indirect. Binding can be weak; no strength is given. Sequences can lack the tags named with a protein. One block for each molecule: values may come before it.
